Laboratory results from the supplement of paper PMC12823440, “Inhibitors supercharge kinase turnover through native proteolytic circuits” (Nature, 2025).
Some of the results follow. The calls rarely recur for the same compound in another form.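 Kinases, fused to nanoluciferase, were expressed in K562 cells; luminescence was measured every 4 h from 2 to 18 h as percent of control (DMSO = 100%, positive control = 0%). A time point is decreased if signal falls significantly (2 sigma). Hits were called by the authors by a rule that is not shown; the count of time points alone does not decide it.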

Amino acid sequences for entries named in this document (tags omitted). A change or cut given only in a name is not applied to a line headed by its entry.
UniProt P00519, whole entry: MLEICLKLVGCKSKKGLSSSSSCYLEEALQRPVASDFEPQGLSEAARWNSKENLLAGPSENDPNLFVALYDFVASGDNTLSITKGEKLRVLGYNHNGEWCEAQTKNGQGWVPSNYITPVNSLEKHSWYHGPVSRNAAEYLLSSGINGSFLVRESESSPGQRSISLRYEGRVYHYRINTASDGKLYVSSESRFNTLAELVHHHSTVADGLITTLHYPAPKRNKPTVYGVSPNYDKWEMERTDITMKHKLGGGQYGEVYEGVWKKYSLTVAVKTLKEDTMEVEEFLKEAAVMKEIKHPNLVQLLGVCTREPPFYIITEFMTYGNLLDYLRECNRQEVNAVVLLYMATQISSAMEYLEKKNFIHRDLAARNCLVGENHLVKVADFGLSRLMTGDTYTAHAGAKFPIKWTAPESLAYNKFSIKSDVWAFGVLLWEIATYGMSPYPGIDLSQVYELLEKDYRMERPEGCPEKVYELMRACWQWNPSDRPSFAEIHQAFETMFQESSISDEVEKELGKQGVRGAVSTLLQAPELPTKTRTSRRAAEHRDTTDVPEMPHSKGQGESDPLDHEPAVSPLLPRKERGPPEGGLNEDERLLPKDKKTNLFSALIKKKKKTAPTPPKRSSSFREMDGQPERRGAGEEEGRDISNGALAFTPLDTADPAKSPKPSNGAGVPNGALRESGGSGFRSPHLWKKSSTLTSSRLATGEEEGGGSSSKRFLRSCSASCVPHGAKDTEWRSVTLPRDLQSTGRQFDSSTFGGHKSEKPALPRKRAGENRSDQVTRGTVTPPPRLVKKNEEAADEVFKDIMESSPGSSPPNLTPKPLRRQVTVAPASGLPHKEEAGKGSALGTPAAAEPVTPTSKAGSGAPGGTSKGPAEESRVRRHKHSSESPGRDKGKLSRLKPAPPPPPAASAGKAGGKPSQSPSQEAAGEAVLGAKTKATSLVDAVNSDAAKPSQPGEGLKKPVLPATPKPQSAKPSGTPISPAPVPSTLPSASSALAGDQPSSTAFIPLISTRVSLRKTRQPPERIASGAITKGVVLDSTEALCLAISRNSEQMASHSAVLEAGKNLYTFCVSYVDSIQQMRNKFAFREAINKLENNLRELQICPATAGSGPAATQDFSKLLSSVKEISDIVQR
UniProt P31749: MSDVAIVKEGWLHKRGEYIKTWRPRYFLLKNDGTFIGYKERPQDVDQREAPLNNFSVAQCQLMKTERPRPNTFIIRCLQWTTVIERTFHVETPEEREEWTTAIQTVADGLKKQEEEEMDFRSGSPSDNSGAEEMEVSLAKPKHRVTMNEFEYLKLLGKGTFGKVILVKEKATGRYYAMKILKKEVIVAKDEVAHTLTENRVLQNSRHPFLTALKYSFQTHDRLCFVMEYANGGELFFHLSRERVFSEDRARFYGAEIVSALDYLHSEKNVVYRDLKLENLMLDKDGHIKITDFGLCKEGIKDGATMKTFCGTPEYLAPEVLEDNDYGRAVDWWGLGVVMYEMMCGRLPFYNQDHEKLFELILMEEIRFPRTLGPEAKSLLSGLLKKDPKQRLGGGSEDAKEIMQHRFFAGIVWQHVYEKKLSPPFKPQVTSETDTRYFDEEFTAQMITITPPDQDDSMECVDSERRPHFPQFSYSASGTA
UniProt Q9UM73: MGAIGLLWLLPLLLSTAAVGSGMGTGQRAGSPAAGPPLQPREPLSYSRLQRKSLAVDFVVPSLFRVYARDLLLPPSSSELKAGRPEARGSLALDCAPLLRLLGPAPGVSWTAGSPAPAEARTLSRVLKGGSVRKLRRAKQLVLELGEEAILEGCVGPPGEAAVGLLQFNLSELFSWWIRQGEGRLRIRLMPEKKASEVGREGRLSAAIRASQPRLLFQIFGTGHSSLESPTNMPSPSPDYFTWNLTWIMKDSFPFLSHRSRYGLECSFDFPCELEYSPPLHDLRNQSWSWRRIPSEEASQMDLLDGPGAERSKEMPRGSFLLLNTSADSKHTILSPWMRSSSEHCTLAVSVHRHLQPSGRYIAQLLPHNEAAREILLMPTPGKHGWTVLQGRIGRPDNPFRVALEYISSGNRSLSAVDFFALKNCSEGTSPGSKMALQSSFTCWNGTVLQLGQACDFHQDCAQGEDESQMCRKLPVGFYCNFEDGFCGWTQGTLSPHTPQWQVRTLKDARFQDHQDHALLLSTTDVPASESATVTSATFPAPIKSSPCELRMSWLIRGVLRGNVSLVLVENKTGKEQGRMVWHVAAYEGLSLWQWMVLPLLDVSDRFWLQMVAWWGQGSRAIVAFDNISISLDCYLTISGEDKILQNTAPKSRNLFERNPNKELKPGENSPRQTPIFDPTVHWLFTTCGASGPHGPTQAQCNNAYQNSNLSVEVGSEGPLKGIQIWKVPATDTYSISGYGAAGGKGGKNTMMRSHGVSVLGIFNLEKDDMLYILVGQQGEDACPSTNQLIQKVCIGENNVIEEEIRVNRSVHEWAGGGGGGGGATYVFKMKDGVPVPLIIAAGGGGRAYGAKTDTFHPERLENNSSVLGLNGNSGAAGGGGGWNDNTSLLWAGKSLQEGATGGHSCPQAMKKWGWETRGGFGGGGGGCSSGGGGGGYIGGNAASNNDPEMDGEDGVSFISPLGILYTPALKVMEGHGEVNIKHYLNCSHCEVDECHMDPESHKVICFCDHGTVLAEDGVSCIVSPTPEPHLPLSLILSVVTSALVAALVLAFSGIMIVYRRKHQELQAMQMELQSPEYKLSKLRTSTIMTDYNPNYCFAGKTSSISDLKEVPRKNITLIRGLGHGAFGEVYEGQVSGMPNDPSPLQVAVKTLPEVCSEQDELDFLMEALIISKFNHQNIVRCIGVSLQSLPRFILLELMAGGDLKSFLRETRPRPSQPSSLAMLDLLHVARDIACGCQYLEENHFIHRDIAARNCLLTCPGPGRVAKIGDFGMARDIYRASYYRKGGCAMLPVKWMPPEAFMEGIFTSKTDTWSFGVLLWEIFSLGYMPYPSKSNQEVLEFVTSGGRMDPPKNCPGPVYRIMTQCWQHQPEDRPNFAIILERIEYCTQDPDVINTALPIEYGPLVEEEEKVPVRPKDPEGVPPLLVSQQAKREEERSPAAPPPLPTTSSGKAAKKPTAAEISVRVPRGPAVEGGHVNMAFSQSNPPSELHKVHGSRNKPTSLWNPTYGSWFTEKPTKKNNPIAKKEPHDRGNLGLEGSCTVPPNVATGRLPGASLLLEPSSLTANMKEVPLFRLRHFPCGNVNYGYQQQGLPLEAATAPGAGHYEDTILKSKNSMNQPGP
UniProt P10398: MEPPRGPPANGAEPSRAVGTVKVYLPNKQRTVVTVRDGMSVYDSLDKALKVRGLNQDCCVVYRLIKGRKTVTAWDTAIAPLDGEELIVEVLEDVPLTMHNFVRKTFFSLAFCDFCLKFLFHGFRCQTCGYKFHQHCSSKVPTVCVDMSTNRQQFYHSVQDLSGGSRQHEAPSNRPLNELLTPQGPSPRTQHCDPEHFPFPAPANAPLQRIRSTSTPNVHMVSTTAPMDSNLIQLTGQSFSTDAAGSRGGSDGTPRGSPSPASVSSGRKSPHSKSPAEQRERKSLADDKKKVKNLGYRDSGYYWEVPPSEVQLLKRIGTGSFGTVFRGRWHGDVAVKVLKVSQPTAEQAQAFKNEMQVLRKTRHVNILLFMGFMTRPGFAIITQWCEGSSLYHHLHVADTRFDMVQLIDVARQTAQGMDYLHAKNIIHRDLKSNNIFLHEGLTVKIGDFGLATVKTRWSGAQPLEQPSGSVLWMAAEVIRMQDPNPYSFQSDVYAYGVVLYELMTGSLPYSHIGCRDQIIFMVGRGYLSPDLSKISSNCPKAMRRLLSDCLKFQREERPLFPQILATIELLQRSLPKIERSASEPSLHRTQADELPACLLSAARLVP
UniProt O14965: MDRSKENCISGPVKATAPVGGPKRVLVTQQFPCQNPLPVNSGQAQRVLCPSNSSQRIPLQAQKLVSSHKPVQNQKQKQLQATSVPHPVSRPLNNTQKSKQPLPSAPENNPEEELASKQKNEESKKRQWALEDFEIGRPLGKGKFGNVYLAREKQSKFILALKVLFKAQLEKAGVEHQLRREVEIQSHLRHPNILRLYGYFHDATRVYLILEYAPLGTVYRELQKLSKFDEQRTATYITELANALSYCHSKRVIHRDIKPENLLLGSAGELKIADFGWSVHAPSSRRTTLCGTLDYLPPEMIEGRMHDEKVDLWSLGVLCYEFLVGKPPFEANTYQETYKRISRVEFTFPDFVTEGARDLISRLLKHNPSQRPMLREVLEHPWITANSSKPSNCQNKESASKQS
UniProt Q9UQB9: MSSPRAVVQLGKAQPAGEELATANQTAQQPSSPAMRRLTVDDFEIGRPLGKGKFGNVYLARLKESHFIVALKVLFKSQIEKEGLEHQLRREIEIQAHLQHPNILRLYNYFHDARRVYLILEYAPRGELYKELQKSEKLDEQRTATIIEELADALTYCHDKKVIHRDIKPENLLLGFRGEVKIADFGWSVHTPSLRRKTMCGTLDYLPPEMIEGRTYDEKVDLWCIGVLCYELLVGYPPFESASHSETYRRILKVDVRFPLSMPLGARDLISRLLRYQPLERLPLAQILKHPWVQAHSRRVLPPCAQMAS
UniProt P51451: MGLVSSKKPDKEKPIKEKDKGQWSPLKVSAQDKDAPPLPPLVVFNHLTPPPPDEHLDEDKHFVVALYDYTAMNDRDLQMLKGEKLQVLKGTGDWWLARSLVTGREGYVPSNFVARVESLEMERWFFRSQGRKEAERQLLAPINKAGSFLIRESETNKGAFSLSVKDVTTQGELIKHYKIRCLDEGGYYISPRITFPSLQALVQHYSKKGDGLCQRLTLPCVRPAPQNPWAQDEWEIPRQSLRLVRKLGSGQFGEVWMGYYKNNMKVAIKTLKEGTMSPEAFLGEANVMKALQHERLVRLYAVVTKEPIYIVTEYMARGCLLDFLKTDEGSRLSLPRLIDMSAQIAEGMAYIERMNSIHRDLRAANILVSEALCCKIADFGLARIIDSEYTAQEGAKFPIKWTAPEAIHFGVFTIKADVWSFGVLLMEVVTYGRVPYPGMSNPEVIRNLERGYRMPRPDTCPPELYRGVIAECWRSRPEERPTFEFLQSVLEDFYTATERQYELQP
UniProt P51813: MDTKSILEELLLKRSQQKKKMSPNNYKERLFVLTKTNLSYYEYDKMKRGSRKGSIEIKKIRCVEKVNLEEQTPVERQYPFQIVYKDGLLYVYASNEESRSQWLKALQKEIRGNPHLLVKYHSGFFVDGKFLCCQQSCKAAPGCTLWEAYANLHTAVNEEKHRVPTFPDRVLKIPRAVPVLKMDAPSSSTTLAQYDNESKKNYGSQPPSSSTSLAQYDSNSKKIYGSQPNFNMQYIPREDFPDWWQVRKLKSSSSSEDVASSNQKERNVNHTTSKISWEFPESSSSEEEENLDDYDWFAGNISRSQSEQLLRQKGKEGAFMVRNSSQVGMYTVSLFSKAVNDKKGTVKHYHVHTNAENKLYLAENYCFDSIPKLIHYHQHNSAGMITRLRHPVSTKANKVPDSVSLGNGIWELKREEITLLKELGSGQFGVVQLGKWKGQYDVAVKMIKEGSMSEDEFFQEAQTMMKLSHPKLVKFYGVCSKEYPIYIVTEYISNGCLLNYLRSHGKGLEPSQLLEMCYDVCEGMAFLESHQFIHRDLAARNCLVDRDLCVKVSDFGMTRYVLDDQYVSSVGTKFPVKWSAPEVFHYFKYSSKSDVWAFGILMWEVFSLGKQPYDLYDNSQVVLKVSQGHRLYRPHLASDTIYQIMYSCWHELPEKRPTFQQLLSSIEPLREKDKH
UniProt P15056, whole entry, looked up: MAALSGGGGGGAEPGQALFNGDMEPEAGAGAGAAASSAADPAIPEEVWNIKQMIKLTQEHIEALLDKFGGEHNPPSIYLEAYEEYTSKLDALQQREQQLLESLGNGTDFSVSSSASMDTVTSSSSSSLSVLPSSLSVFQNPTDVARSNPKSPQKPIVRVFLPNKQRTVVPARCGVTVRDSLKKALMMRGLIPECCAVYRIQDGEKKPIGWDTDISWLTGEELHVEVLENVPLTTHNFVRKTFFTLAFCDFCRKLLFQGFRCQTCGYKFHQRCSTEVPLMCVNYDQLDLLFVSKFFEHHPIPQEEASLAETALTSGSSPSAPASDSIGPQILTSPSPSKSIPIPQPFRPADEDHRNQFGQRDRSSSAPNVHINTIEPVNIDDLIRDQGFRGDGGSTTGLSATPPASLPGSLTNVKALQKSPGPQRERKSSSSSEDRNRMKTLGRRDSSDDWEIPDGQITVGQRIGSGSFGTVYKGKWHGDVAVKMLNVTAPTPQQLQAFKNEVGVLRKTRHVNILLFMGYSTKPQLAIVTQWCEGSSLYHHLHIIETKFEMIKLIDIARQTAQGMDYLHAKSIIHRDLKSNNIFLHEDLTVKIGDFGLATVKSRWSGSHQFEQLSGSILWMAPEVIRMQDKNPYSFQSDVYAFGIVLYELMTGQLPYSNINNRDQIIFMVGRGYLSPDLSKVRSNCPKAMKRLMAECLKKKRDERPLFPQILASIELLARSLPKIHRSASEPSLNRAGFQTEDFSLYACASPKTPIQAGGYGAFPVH

Experiments:
Assay in all cases: kinase-Nluc reporter destabilization hit call (1 = scored as downregulated) (binary); higher = compound decreases kinase abundance
Conditions in all cases: K562; 2-18 h
ABL1 = ABL1 (UniProt P00519)
AKT1 = AKT1 (UniProt P31749)
ALK = ALK (UniProt Q9UM73)
ARAF = ARAF (UniProt P10398)
AURKA = AURKA (UniProt O14965)
AURKB = AURKB (UniProt Q96GD4)
AURKC = AURKC (UniProt Q9UQB9)
BLK = BLK (UniProt P51451)
BMX = BMX (UniProt P51813)
BRAF = BRAF (UniProt P15056)

Measured: kinase-Nluc reporter destabilization hit call

C=CC(=O)Nc1cccc(Nc2nc(Nc3ccc(Oc4ccnc(C(=O)NC)c4)cc3)ncc2F)c1 (2.5 µM)
inactive: ABL1 = 0 | AKT1 = 0 | ALK 0 | ARAF 0 | AURKA 0 | AURKB 0 | AURKC 0 | BLK 0 | BMX 0 | BRAF 0

O=S(=O)(N=Cc1c(O)ccc2ccccc12)c1cccs1 (10 µM)
inactive: ABL1 = 0 | AKT1 = 0 | ALK 0 | ARAF 0 | AURKA 0 | AURKB 0 | AURKC 0 | BLK 0 | BMX 0 | BRAF 0

CC(C)(C)S(=O)(=O)c1cc2c(Nc3ccc4scnc4c3)ccnc2cc1OCCOCCOCCOCCOCC(=O)Nc1cccc2c1CN(C1CCC(=O)NC1=O)C2=O (stereo not given) [PROTAC RIPK degrader-6] (10 µM)
inactive: ABL1 = 0 | AKT1 = 0 | ALK 0 | ARAF 0 | AURKA 0 | AURKB 0 | AURKC 0 | BLK 0 | BMX 0 | BRAF 0

O=C(N=c1sccn1Cc1ccccc1)c1c[nH]c2ncccc12 (10 µM)
inactive: ABL1 = 0 | AKT1 = 0 | ALK 0 | ARAF 0 | AURKA 0 | AURKB 0 | AURKC 0 | BLK 0 | BMX 0 | BRAF 0

C1=N/C2=N/c3ccc(OCCN4CCCC4)c(c3)COC/C=C/COCc3cccc(c3)C(=C1)N2 [Pacritinib] (2.5 µM)
inactive: ABL1 = 0 | AKT1 = 0 | ALK 0 | ARAF 0 | AURKA 0 | AURKB 0 | AURKC 0 | BLK 0 | BMX 0 | BRAF 0

COC[C@H]1Cn2cc(-c3nc(Nc4ccnn4C)ncc3C)nc2C(=O)N1Cc1ccc(F)c(F)c1 (10 µM)
inactive: ABL1 = 0 | AKT1 = 0 | ALK 0 | ARAF 0 | AURKA 0 | AURKB 0 | AURKC 0 | BLK 0 | BMX 0 | BRAF 0

CCN1C(C)(C)CC(Oc2ccc(C(=O)Nc3ccc(NC(=O)Nc4cc(C(C)(C)C)on4)cc3)nc2)CC1(C)C (10 µM)
inactive: ABL1 = 0 | AKT1 = 0 | ALK 0 | ARAF 0 | AURKA 0 | AURKB 0 | AURKC 0 | BLK 0 | BMX 0 | BRAF 0

C=CC(=O)Nc1cccc(Oc2nc(Nc3ccc(N4CCN(C)CC4)cc3)nc3ccsc23)c1 [Olmutinib] (2.5 µM)
inactive: ABL1 = 0 | AKT1 = 0 | ALK 0 | ARAF 0 | AURKA 0 | AURKB 0 | AURKC 0 | BLK 0 | BMX 0 | BRAF 0

COc1cccc(Nc2ncnn3ccc(CN4CC[C@@H](N)[C@H](O)C4)c23)c1 (2.5 µM)
inactive: ABL1 = 0 | AKT1 = 0 | ALK 0 | ARAF 0 | AURKA 0 | AURKB 0 | AURKC 0 | BLK 0 | BMX 0 | BRAF 0

O=C(O)/C=C/c1cc(Br)c(Br)c(Br)c1Br (10 µM)
inactive: ABL1 = 0 | AKT1 = 0 | ALK 0 | ARAF 0 | AURKA 0 | AURKB 0 | AURKC 0 | BLK 0 | BMX 0 | BRAF 0

Cc1ccc(CNC(=O)N2CCC[C@]3(CCN(Cc4ccc(Cl)c(Cl)c4)C3)C2)cc1 (10 µM)
inactive: ABL1 = 0 | AKT1 = 0 | ALK 0 | ARAF 0 | AURKA 0 | AURKB 0 | AURKC 0 | BLK 0 | BMX 0 | BRAF 0

CCOc1cc(C(=O)N2CCC(N3CCN(C)CC3)CC2)ccc1Nc1ncc2c(n1)N(S(C)(=O)=O)c1ccccc1C(=O)N2C (10 µM)
inactive: ABL1 = 0 | AKT1 = 0 | ALK 0 | ARAF 0 | AURKA 0 | AURKB 0 | AURKC 0 | BLK 0 | BMX 0 | BRAF 0

CS(=O)(=O)N1CCN(Cc2cn3cc(-c4cnc(N)nc4)nc(N4CCOCC4)c3n2)CC1 (10 µM)
inactive: ABL1 = 0 | AKT1 = 0 | ALK 0 | ARAF 0 | AURKA 0 | AURKB 0 | AURKC 0 | BLK 0 | BMX 0 | BRAF 0

2 records drawn at random from the list so far:
COc1cccc(Nc2ncnn3ccc(CN4CC[C@@H](N)[C@H](O)C4)c23)c1 (2.5 µM)
inactive: ABL1 = 0 | AKT1 = 0 | ALK 0 | ARAF 0 | AURKA 0 | AURKB 0 | AURKC 0 | BLK 0 | BMX 0 | BRAF 0

CS(=O)(=O)N1CCN(Cc2cn3cc(-c4cnc(N)nc4)nc(N4CCOCC4)c3n2)CC1 (10 µM)
inactive: ABL1 = 0 | AKT1 = 0 | ALK 0 | ARAF 0 | AURKA 0 | AURKB 0 | AURKC 0 | BLK 0 | BMX 0 | BRAF 0

Next structures follow:

O=C(Nc1ncc(SCCN2CCCC2)s1)[C@]1(c2ccc(S(=O)(=O)C3CC3)cc2)C[C@H]1C1CCCCC1 [Globalagliatin] (2.5 µM)
inactive: ABL1 = 0 | AKT1 = 0 | ALK 0 | ARAF 0 | AURKA 0 | AURKB 0 | AURKC 0 | BLK 0 | BMX 0 | BRAF 0

Cc1nc(NC(=O)N2CCC[C@H]2C(N)=O)sc1-c1csc(C(C)(C)C)n1 (10 µM)
inactive: ABL1 = 0 | AKT1 = 0 | ALK 0 | ARAF 0 | AURKA 0 | AURKB 0 | AURKC 0 | BLK 0 | BMX 0 | BRAF 0

Cc1cc(Nc2ncc(Cl)c(Nc3ccccc3S(=O)(=O)C(C)C)n2)c(OC(C)C)cc1C1CCN(CC(=O)NCCNc2cccc3c2C(=O)N(C2CCC(=O)NC2=O)C3=O)CC1 (stereo not given) (10 µM)
inactive: ABL1 = 0 | AKT1 = 0 | ALK 0 | ARAF 0 | AURKA 0 | AURKB 0 | AURKC 0 | BLK 0 | BMX 0 | BRAF 0

COc1cc(OC)c(/C=C/S(=O)(=O)Cc2ccc(OC)c(NCC(=O)O)c2)c(OC)c1 [Rigosertib (sodium)] (10 µM)
inactive: ABL1 = 0 | AKT1 = 0 | ALK 0 | ARAF 0 | AURKA 0 | AURKB 0 | AURKC 0 | BLK 0 | BMX 0 | BRAF 0

COc1cc2nccc(Oc3ccc(NC(=O)Nc4ccc(F)cc4F)c(F)c3)c2cc1OC (10 µM)
inactive: ABL1 = 0 | AKT1 = 0 | ALK 0 | ARAF 0 | AURKA 0 | AURKB 0 | AURKC 0 | BLK 0 | BMX 0 | BRAF 0

N#Cc1cn([C@@H]2O[C@H](CO)[C@@H](O)[C@H]2O)c2nc[nH]c(=O)c12 [Jaspamycin] (10 µM)
inactive: ABL1 = 0 | AKT1 = 0 | ALK 0 | ARAF 0 | AURKA 0 | AURKB 0 | AURKC 0 | BLK 0 | BMX 0 | BRAF 0

CN1CCN(c2ccc(NC(=O)c3ccc(C#N)o3)c(N3CCCCC3)c2)CC1 (10 µM)
inactive: ABL1 = 0 | AKT1 = 0 | ALK 0 | ARAF 0 | AURKA 0 | AURKB 0 | AURKC 0 | BLK 0 | BMX 0 | BRAF 0

C=CC(=O)Nc1cc(C(=O)NC)cc(-c2n[nH]c3ccccc23)c1 (10 µM)
inactive: ABL1 = 0 | AKT1 = 0 | ALK 0 | ARAF 0 | AURKA 0 | AURKB 0 | AURKC 0 | BLK 0 | BMX 0 | BRAF 0

CC[C@@H]1CN(C(=O)NCC(F)(F)F)C[C@@H]1c1cnc2cnc3[nH]ccc3n12 [Upadacitinib] (10 µM)
inactive: ABL1 = 0 | AKT1 = 0 | ALK 0 | ARAF 0 | AURKA 0 | AURKB 0 | AURKC 0 | BLK 0 | BMX 0 | BRAF 0

COc1ncc2cc(C(=O)Nc3cc(C(=O)NCc4cccc(Cl)c4)ccc3Cl)c(=O)[nH]c2n1 (2.5 µM)
inactive: ABL1 = 0 | AKT1 = 0 | ALK 0 | ARAF 0 | AURKA 0 | AURKB 0 | AURKC 0 | BLK 0 | BMX 0 | BRAF 0

CCCC[C@H](CO)Nc1nc(NC)ncc1OC [Interferon receptor inducer-1] (10 µM)
inactive: ABL1 = 0 | AKT1 = 0 | ALK 0 | ARAF 0 | AURKA 0 | AURKB 0 | AURKC 0 | BLK 0 | BMX 0 | BRAF 0

O=C1NC(=O)C(c2ccccc2[N+](=O)[O-])=C1Nc1ccc(O)c(Cl)c1 (10 µM)
inactive: ABL1 = 0 | AKT1 = 0 | ALK 0 | ARAF 0 | AURKA 0 | AURKB 0 | AURKC 0 | BLK 0 | BMX 0 | BRAF 0

CC(C)(C)S(=O)(=O)c1ccc2nccc(Nc3n[nH]c4ccc(F)cc34)c2c1 (10 µM)
inactive: ABL1 = 0 | AKT1 = 0 | ALK 0 | ARAF 0 | AURKA 0 | AURKB 0 | AURKC 0 | BLK 0 | BMX 0 | BRAF 0

O=C(CC(c1ccccc1)C(C(=O)O)C(=O)O)c1ccc(C(F)(F)F)cc1 (stereo not given) (10 µM)
inactive: ABL1 = 0 | AKT1 = 0 | ALK 0 | ARAF 0 | AURKA 0 | AURKB 0 | AURKC 0 | BLK 0 | BMX 0 | BRAF 0

Cn1sc(=O)n(Cc2ccccc2)c1=O (10 µM)
inactive: ABL1 = 0 | AKT1 = 0 | ALK 0 | ARAF 0 | AURKA 0 | AURKB 0 | AURKC 0 | BLK 0 | BMX 0 | BRAF 0

CNC(=O)c1ccc(-c2cnc3ncc(Cc4ccc5ncccc5c4)n3n2)cc1F [Capmatinib] (10 µM)
inactive: ABL1 = 0 | AKT1 = 0 | ALK 0 | ARAF 0 | AURKA 0 | AURKB 0 | AURKC 0 | BLK 0 | BMX 0 | BRAF 0
